This note sets out measurements from patent publication US20180036302A1, “TREATMENT OF MULTIPLE SCLEROSIS WITH COMBINATION OF LAQUINIMOD AND A STATIN” (Teva Pharmaceutical Industries Ltd., priority 2014, published 2018).

The data set can be described thus: in vivo. As to conditions: male, C57BL/6, mouse, po, 50 mg/kg. The procedure:
For all PO administration groups: 1% MC in water (all PO formulations were made just prior to use).
Fasted overnight and fed 4 hr post dose, free access to water
• 1. For plasma samples: An aliquot of 30 μL plasma sample was added with 150 μL ACN which contains IS (Dexamethasane 40 ng/mL, 5 ng/mL) for protein precipitation. The mixture was vortexed for 2 rain and centrifuged at 12000 rpm for 5 min. The 2 μL supernatant was injected into LC-MS/MS. • 2. For diluted plasma samples: An aliquot of 10 μL plasma sample was added with 90 μL blank plasma to obtain the diluted plasma samples, and the sample dilution factor is 10. An aliquot of 10 μL 10-folder-diluted plasma sample was added with 40 μL blank plasma to obtain the diluted plasma samples, and the sample dilution factor is 50. The exaction procedure for diluted samples was same as those for non-diluted samples.
The animals were restrained manually at the designated time points. Approx. 150 μL of blood samples were taken from the animals into K2EDTA tubes via retro-orbital puncture or cardiac puncture for terminal bleeding under anesthesia with Isoflurane. Blood sample was put on ice and centrifuged at 2000 g for 5 min (4° C.) to obtain plasma sample within 15 minutes. Plasma samples were snap frozen by placing into dry-ice.
The plasma samples were stored at approximately −70° C. until analysis. The backup samples are discarded after two months unless specified. The unused dosing solutions are discarded within 1 week after completion of the study.

As usually defined, the AUC(0-inf) is the area under the concentration-time curve extrapolated to infinity. High values mean more exposure, low ones less exposure. A word on the AUC(0-t): it is the area under the concentration-time curve up to a stated or last time point. Read a low AUC(0-t) as low exposure. In general, Cmax refers to the maximum level reached in the sampled fluid or tissue. As usually defined, the Tmax is the time from dosing to the highest level. The compound `CC(C)c1c(C(=O)Nc2ccccc2)c(-c2ccccc2)c(-c2ccc(F)cc2)n1CC[C@@H](O)C[C@@H](O)CC(=O)O` [Atorvastatin, atorvastatin] returned an AUCINF of 330 ng·h/mL and an AUClast of 317 ng·h/mL. Moreover, where the note is “AUCINF”, the AUC(0-inf) was 268 ng·h/mL. Where the note is “AUClast”, this compound showed an AUC(0-t) of 258 ng·h/mL. Further, the peak level (Cmax) (Cmax) was 361 ng/mL. The Tmax (Tmax) was found to be 15 min.
